The supplement of paper PMC3334620
The full ranking holds about 33,000 sequences; the median of “E-score (-0.5 to 0.5)” is about -0.015, and the highest 2% start at about 0.3. Some of the results follow.

Target: T1, Abf1 (UniProt P14164)
T1 sequence: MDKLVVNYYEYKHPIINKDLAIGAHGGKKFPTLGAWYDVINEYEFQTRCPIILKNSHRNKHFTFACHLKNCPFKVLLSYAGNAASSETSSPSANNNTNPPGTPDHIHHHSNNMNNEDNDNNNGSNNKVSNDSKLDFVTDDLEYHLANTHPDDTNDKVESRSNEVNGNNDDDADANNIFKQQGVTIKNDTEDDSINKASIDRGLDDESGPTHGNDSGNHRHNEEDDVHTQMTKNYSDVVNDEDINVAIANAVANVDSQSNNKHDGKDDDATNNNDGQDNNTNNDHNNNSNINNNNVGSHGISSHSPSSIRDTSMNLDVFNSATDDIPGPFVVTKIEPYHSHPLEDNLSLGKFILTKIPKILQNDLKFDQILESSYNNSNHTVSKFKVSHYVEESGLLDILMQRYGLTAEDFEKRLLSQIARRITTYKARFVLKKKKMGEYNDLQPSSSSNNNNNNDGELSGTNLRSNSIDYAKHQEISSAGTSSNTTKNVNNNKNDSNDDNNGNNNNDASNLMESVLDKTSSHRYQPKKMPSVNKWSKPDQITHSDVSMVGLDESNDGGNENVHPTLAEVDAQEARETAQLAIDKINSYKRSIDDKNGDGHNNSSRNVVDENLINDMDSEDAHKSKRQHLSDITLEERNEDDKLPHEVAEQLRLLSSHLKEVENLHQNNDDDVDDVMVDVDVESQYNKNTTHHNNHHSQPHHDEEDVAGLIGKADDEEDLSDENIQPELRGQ
Assay: PBM E-score (8-mer binding enrichment) (E-score (-0.5 to 0.5)); higher = stronger / more preferred TF binding
Conditions: protein concentration: 200 nM; construct: GST-full length
Procedure, shortened: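 GST-tagged yeast TFs (full-length or DNA-binding domain) were made by PURExpress in vitro transcription/translation and applied at about 100-200 nM to universal all-10-mer Agilent arrays. The arrays were made double-stranded by primer extension, on fresh or once-stripped slides. Bound protein was detected with fluorescent anti-GST, and scans were normalised with masliner. Each ungapped eight-base word, pooled with its reverse complement, received an E-score (modified Wilcoxon-Mann-Whitney statistic) from the Universal PBM Analysis Suite.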

| Sequence | PBM E-score |
| --- | --- |
| CACGAGGG | -0.011 |
| AGGACTAA | -0.0301 |
| AGATCCAC | 0.116 |
| AATGTGAC | 0.185 |
| GAGCGGAA | 0.0523 |
| AAAGTCAT | 0.205 |
| AGCCATTG | 0.0683 |
| AGCAAGGA | -0.292 |
| ACAGGTAG | -0.0394 |
| CACCCGTC | 0.0459 |
| CAAGTGGG | -0.00816 |
| CGTGTGCA | 0.107 |
| AAACGCGC | -0.178 |
| AACAACAA | 0.103 |
| AAGTGTAA | -0.103 |
| ACTCACTG | -0.112 |
| CAACGGCC | -0.103 |
| AAGATCAA | 0.123 |
| GACACTAA | -0.0284 |
| GATCTCAC | 0.0761 |
| CCGACTAA | -0.106 |
| ATCTATGC | 0.108 |
| TCTCGTCA | 0.277 |
| CTGCATGC | -0.0428 |
| AGGGTCTC | -0.214 |

| Sequence | PBM E-score |
| --- | --- |
| CTCCGCGC | -0.159 |
| GTTGCAAA | 0.107 |
| AATTAATC | 0.154 |
| AATAGCCA | -0.0176 |
| AGTGCCTC | -0.198 |
| AACAGCCC | -0.373 |
| ATCGTACG | 0.394 |
| AAACGCAC | -0.0189 |
| GAGAACTC | -0.0578 |
| CGCGATAG | 0.161 |
| CCCCTCGA | -0.209 |
| CAATGGGC | -0.183 |
| CCCAGGTA | -0.238 |
| AGAGAGTA | -0.00683 |
| TCTGGAAA | 0.0108 |
| GCTTATAC | 0.0755 |
| GTTGGTAA | 0.105 |
| ACGTCCAA | 0.0503 |
| AAGGGATG | -0.0663 |
| TCCACCGA | -0.174 |
| CGCTGCTA | -0.129 |
| GAGGCAAC | -0.112 |
| ATGAGCGG | -0.0229 |
| ACGATTCG | 0.291 |
| GGCTTAAC | -0.0442 |

| Sequence | PBM E-score |
| --- | --- |
| CGTGGAGA | 0.238 |
| AGTTATCA | 0.302 |
| CGCCTCCG | -0.0713 |
| GAGCTATA | 0.0615 |
| ATTCTCTG | 0.0737 |
| TGTATCAA | -0.0209 |
| ACCCGAGC | 0.0288 |
| AGAACTAT | 0.00967 |
| ATACCGGG | -0.0368 |
| CTACTGAC | -0.173 |
| GGTGTCAC | 0.163 |
| GCCAGACA | -0.232 |
| AGTGCTGG | 0.0849 |
| CGGGAAGA | 0.0163 |
| ATGTTATC | 0.239 |
| ACAAACTG | -0.0686 |
| AGGCGAGG | -0.169 |
| AGCAATAA | -0.126 |
| GACTTGCA | 0.00492 |
| ATGCATGC | 0.0513 |
| TCGACCCA | -0.0678 |
| AACGGAAC | 0.119 |
| AAAAACAG | -0.102 |
| AGGCAAAT | 0.0127 |
| CTCGCTAA | -0.121 |

Quoted at random: 5 entries already listed, in no set order.

| Sequence | PBM E-score |
| --- | --- |
| AATAGCCA | -0.0176 |
| AAGGGATG | -0.0663 |
| AAACGCAC | -0.0189 |
| ACAAACTG | -0.0686 |
| GCCAGACA | -0.232 |

Continued.

| Sequence | PBM E-score |
| --- | --- |
| ATTCAAAT | 0.0825 |
| AGATCGCT | 0.134 |
| TAAGATCA | 0.314 |
| GCAAGCCA | -0.0325 |
| GAATATGC | -0.0435 |
| GAGCGTTA | 0.0982 |
| ATTGGCAC | 0.0333 |
| CTACGGAC | 0.0572 |
| GATACGGA | 0.279 |
| ATTACGGG | -0.0226 |
| AGTTGTAT | 0.00525 |
| CCTGTTGA | -0.00684 |
| AGAGTACA | -0.0805 |
| ACCCCGCA | 0.0217 |
| AGACACCA | -0.0405 |
| TCCACAGA | -0.0113 |
| GAACTCCA | 0.0468 |
| CGGAGACG | 0.0614 |
| CGCCACTA | -0.0983 |
| CGAACTGA | -0.192 |
| ATCGTGCG | 0.366 |
| CGCCTAAG | -0.012 |
| CCAAGTCG | 0.0822 |
| AATTATGA | 0.24 |
| GCAGATAA | 0.0204 |

| Sequence | PBM E-score |
| --- | --- |
| AGCTTACG | 0.0124 |
| GAGACAGC | -0.0321 |
| CCCACCTC | -0.29 |
| GTATAAGA | 0.179 |
| GACCCTCA | -0.172 |
| GCCGCTGA | -0.189 |
| AATGCTGA | -0.033 |
| TGCCCGCA | -0.00977 |
| ATATACGC | 0.146 |
| CGAAGTCC | -0.103 |
| AGGTTTCC | -0.0868 |
| GTTATTTA | 0.0322 |
| AAAGCTGA | -0.114 |
| AGCTTAGC | 0.044 |
| CAATCGAC | 0.0189 |
| ACGAGAGT | 0.0659 |
| GTGAAAAA | 0.221 |
| CCCTTAGG | -0.0737 |
| AGCGTTAG | -0.0881 |
| ATGAATAG | -0.00206 |
| AGAGGAAC | -0.139 |
| CTCCTCCA | -0.157 |
| ACTGACAG | 0.0216 |
| CAGGCGTC | -0.21 |
| ATGAACAG | -0.0351 |

| Sequence | PBM E-score |
| --- | --- |
| ATGCCGTG | 0.209 |
| AAGCTAGC | 0.0216 |
| CCATAATC | -0.0528 |
| AGGCTGAC | -0.203 |
| GGAATAGA | 0.0791 |
| CAGAGAAG | -0.0774 |
| CGACCGAA | 0.102 |
| AAGGGTAT | -0.16 |
| GAAGTTGA | -0.0437 |
| AGAGTGCG | -0.0544 |
| AGATCTAA | -0.0645 |
| GCCCGTAA | -0.012 |
| CCACTAGC | -0.193 |
| CCACAAGG | -0.192 |
| GCGGATCC | -0.34 |
| AATTCATG | 0.0291 |
| AGGTGAAA | 0.0563 |
| ACTCACAA | -0.0829 |
| CAATGCCC | -0.0566 |
| CACCGATC | 0.0259 |
| AGAGTGGA | -0.0978 |
| GCGACGAC | 0.098 |
| GAACGCGC | 0.0459 |
| ACCACAAT | -0.149 |
| GCCGTTCA | 0.156 |

Reformatted tab-delimited: part of the list above
Sequence	PBM E-score
GAAGTTGA	-0.0437
AGAGTGCG	-0.0544

(cont.)

| Sequence | PBM E-score |
| --- | --- |
| GAGACCTA | -0.135 |
| CCATAGAG | -0.148 |
| ATGGGGAC | -0.0783 |
| ACCTCTCA | -0.0244 |
| CTACTAAC | 0.0614 |
| ATGCCGAC | 0.107 |
| GCCGCCGC | -0.336 |
| ACTACCCG | 0.0299 |
| AAAGCAGC | 0.0235 |
| CTCATCGA | -0.0667 |
| CAAAGACG | 0.0622 |
| AACGCCAC | -0.145 |
| CATGATTA | 0.227 |
| CTACCTTC | 0.0107 |
| ACGAGTTC | 0.206 |
| CAAGACAG | -0.162 |
| CAGCAATG | -0.203 |
| AGACGGTG | 0.0281 |
| GGCCAACA | -0.215 |
| CCCAGCGA | -0.0331 |
| ACACAGAT | -0.0531 |
| ACACATTA | -0.117 |
